In patent publication US9776964B2, “Phenoxyethyl cyclic amine derivatives and their activity as EP4 receptor modulators” (Eli Lilly and Company, priority 2013, dated 2017):
Structures can show the parent of a compound that is named as a salt. Some of these results come from one statement about several compounds together.

Sequences of proteins named here, by UniProt entry; tags and fusion partners are left off. A change or cut given only in a name is not applied to a line headed by its entry.
UniProt P35408: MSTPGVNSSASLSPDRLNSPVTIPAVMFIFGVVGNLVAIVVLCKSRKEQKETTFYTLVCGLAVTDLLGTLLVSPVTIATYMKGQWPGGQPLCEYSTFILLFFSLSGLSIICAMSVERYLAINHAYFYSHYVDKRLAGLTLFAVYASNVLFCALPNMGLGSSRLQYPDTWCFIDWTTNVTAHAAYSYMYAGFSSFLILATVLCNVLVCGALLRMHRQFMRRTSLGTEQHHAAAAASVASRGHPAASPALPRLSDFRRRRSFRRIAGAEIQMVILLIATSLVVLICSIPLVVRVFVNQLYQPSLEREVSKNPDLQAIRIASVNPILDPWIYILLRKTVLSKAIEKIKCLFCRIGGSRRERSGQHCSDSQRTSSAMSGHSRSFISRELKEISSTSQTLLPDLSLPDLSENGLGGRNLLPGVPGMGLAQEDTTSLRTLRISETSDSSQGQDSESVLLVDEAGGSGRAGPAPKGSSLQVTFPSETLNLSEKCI

The molecules below were run against human EP4 (Homo sapiens, UniProt P35408) (assay: In vitro binding to human EP4 ([3H]-PGE2 displacement, membranes)). Conditions: HEK293 membranes, statement for all examples, read-out: Ki value for hEP4.
Parameters: expressed in transfected cells
Experimental: hEP1 and hEP4 membranes are prepared from recombinant HEK293 cells stably expressing human EP1 (Genbank accession number AY275470) or EP4 (Genbank accession number AY429109) receptors. hEP2 and hEP3 membranes are prepared from HEK293 cells transiently transfected with EP2 (Genbank accession number AY275471) or EP3 (isoform VI: Genbank accession number AY429108) receptor plasmids. Frozen cell pellets are homogenized in homogenization buffer using a Teflon/glass homogenizer. Membrane protein is aliquoted and quick frozen on dry ice prior to storage at −80° C. Homogenization buffer contained 10 mM Tris-HCl, pH 7.4, 250 mM sucrose, 1 mM EDTA, 0.3 mM indomethacin and plus Complete™, with EDTA, obtained from Roche Molecular Biochemicals (Catalog Number 1 697 498).
Kd values for [3H]-PGE2 binding to each receptor are determined by saturation binding studies or homologous competition. Compounds are tested in a 96-well format using a three-fold dilution series to generate a 10-point curve. Diluted compound is incubated with 20 μg/well EP1, 10 μg/well EP2, 1 ug/well EP3 or 10 to 20 μg/well EP4 membrane for 90 minutes at 25° C. in the presence of 0.3 to 0.5 nM [^3H]-PGE2 (PerkinElmer, 118 to 180 Ci/mmol). The binding reaction is performed in 200 μL MES buffer (10 mM MES pH 6.0 with KOH, 10 mM MgCl2 and 1 mM EDTA) using 0.5 mL polystyrene 96-well deep-well plates. Nonspecific binding is calculated by comparing binding in the presence and absence of 2 μM of PGE2. The membranes are harvested by filtration (TomTek harvester), washed 4 times with cold buffer (10 mM MES pH 6.0 with KOH, 10 mM MgCl2), dried in a 60° C. oven, and the radioactivity is quantified as counts per minute (CPM) using a TopCount detector. Percent specific binding is calculated as the percent of the binding in the absence of any inhibitor, corrected for binding in the presence of 2 uM of PGE2. Data are analyzed using a 4-parameter nonlinear logistic equation (ABase Equation 205) as shown: y=(A+((B−A)/(1+((C/x)^D)))) where, y=% specific inhibition, A=bottom of the curve; B=top of the curve; C=relative IC50=concentration causing 50% inhibition based on the range of the data from top to bottom; D=Hill, Slope=slope of the curve. Ki conversion from IC50 Values (Ki=IC50/(1+[L]/Kd) where [L] is the ligand concentration). Results are expressed as the geometric mean±standard deviation; n=number of independent determinations. The standard deviation is calculated by the delta method, being SDlog Ki×geometric mean×ln(10).

| SMILES | Ki [nM] |
| --- | --- |
| C[C@H](NC(=O)[C@@H]1CCC[C@H](C)N1CCOc1ccccc1)c1ccc(C(=O)O)cc1 (relative stereo) [Example 2, 4-((1S)-1-((2R*,6R*)-(1-(2-phenoxyethyl)-6-methylpiperidin-2-carbonyl)amino)ethyl)benzoic acid hydrochloride] | < 2000 |
| C[C@H](NC(=O)[C@H]1CC[C@H](O)CN1CCOc1ccccc1)c1ccc(C(=O)O)cc1 (relative stereo) [Example 15, 4-((1S)-1-((2R*,5S*)-(1-(2-phenoxyethyl)-5-hydroxypiperidin-2-carbonyl)amino)ethyl)benzoic acid hydrochloride] | < 2000 |
| C[C@H](NC(=O)C1(C)CCCCN1CCOc1ccccc1)c1ccc(C(=O)O)cc1 (stereo in doubt) [Example 1, 4-((1S)-1-(((2R*)-1-(2-phenoxyethyl)-2-methylpiperidin-2-carbonyl)amino)ethyl)benzoic acid hydrochloride] | < 2000 |
| C[C@H](NC(=O)C1CC(C)(C)CCN1CCOc1ccccc1)c1ccc(C(=O)O)cc1 (stereo in doubt) [Example 11, 4-((1S)-1-(((2R*)-1-(2-phenoxyethyl)-4,4-dimethylpiperidin-2-carbonyl)amino)ethyl)benzoic acid] | < 2000 |
| O=C(O)c1ccc(CNC(=O)[C@H]2[C@@H]3CC[C@@H](C3)N2CCOc2ccccc2)cc1 [Example 3, 4-(((1S,3R,4R)-2-(2-phenoxyethyl)-2-azabicyclo[2.2.1]heptan-3-carbonyl)aminomethyl)benzoic acid] | < 2000 |
| C[C@H](NC(=O)[C@H]1[C@@H]2CC[C@@H](C2)N1CCOc1ccccc1)c1ccc(C(=O)O)cc1 [Example 4, 4-((1S)-1-(((1S,3R,4R)-2-(2-phenoxyethyl)-2-azabicyclo[2.2.1]heptan-3-carbonyl)amino)ethyl)benzoic acid] | < 2000 |
| C[C@H](NC(=O)[C@H]1CC2(CCN1CCOc1ccc(F)cc1)CC2)c1ccc(C(=O)O)cc1 [Example 5, 4-((1S)-1-(((5R)-6-(2-(4-fluorophenoxy)ethyl)-6-azaspiro[2.5]octane-5-carbonyl)amino)ethyl)benzoic acid] | < 2000 |
| C[C@H](NC(=O)[C@H]1CC2(CCN1CCOc1ccccc1)CC2)c1ccc(C(=O)O)cc1 [Example 6, 4-((1S)-1-(((5R)-6-(2-phenoxyethyl)-6-azaspiro[2.5]octane-5-carbonyl)amino)ethyl)benzoic acid] | < 2000 |
| C[C@H](NC(=O)[C@H]1C[C@@H]2C[C@@H]2CN1CCOc1ccccc1)c1ccc(C(=O)O)cc1 [Example 7, 4-((1S)-1-(((1S,4R,6S)-3-(2-phenoxyethyl)-3-azabicyclo[4.1.0]heptane-4-carbonyl)amino)ethyl)benzoic acid] | < 2000 |
| C[C@H](NC(=O)[C@H]1CC(F)(F)CCN1CCOc1ccccc1)c1ccc(C(=O)O)cc1 [Example 8, 4-((1S)-1-(((2R)-1-(2-phenoxyethyl)-4,4-difluoropiperidin-2-carbonyl)amino)ethyl)benzoic acid hydrochloride] | < 2000 |
| C[C@H](NC(=O)[C@@H]1CC(F)(F)CCN1CCOc1ccccc1)c1ccc(C(=O)O)cc1 [Example 9, 4-((1S)-1-(((2S)-1-(2-phenoxyethyl)-4,4-difluoropiperidin-2-carbonyl)amino)ethyl)benzoic acid hydrochloride] | < 2000 |
| C[C@H](NC(=O)[C@H]1CCC(F)(F)CN1CCOc1ccc(F)cc1)c1ccc(C(=O)O)cc1 [Example 10, 4-((1S)-1-(((2R)-1-(2-(4-fluorophenoxy)ethyl)-5,5-difluoropiperidin-2-carbonyl)amino)ethyl)benzoic acid trifluoroacetate] | < 2000 |
| C[C@H](NC(=O)[C@H]1CC(=O)CCN1CCOc1ccccc1)c1ccc(C(=O)O)cc1 [Example 12, 4-((1S)-1-(((2R)-1-(2-phenoxyethyl)-4-oxopiperidin-2-carbonyl)amino)ethyl)benzoic acid trifluoroacetate] | < 2000 |
| C[C@H](NC(=O)[C@H]1C[C@@H](O)CCN1CCOc1ccccc1)c1ccc(C(=O)O)cc1 [Example 13, 4-((1S)-1-(((2R,4S)-1-(2-phenoxyethyl)-4-hydroxypiperidin-2-carbonyl)amino)ethyl)benzoic acid] | < 2000 |
| CO[C@H]1CCN(CCOc2ccccc2)[C@@H](C(=O)N[C@@H](C)c2ccc(C(=O)O)cc2)C1 [Example 14, 4-((1S)-1-(((2R,4S)-1-(2-phenoxyethyl)-4-methoxypiperidin-2-carbonyl)amino)ethyl)benzoic acid] | < 2000 |
| C[C@H](NC(=O)[C@H]1CCCN1CCOc1ccc(F)cc1)c1ccc(C(=O)O)cc1 [Example 16, 4-((1S)-1-(((2R)-1-(2-(4-fluorophenoxy)ethyl)pyrrolidin-2-carbonyl)amino)ethyl)benzoic acid hydrochloride] | < 2000 |
| C[C@H](NC(=O)[C@H]1CC(F)(F)CN1CCOc1ccc(F)cc1)c1ccc(C(=O)O)cc1 [Example 17, 4-((1S)-1-(((2R)-1-(2-(4-fluorophenoxy)ethyl)4,4-difluoropyrrolidin-2-carbonyl)amino)ethyl)benzoic acid] | < 2000 |
| C[C@H](NC(=O)[C@H]1c2ccccc2CCN1CCOc1ccccc1)c1ccc(C(=O)O)cc1 [Example 18, 4-((1S)-1-(((1R)-2-(2-phenoxyethyl)-1,2,3,4-tetrahydroisoquinolin-1-carbonyl)amino)ethyl)benzoic acid hydrochloride] | < 2000 |
| C[C@H](NC(=O)[C@H]1CCC(F)(F)CN1CCOc1ccccc1)c1ccc(C(=O)O)cc1 [Example 19, 4-((1S)-1-(((2R)-1-(2-phenoxyethyl)-5,5-difluoropiperidin-2-carbonyl)amino)ethyl)benzoic acid hydrochloride] | < 2000 |
